In patent US20060084064A1, “Endocan compositions and methods for the treatment of neoplasms” (priority 2003, published 2006):
At least one structure is not confirmed: it was looked up by name or label, or the drawing left a doubt.

Test system: endocan mRNA in HUVECs
Assay: Endocan mRNA expression in serum-starved HUVECs (Northern blot)
Assay type: cell-based, human
Conditions: HUVECs preincubated 30 minutes with 5 μM BIM, 20 μM LY294002 or 50 μM PD98059 before 6 hour treatment; FIG. 3H
Method: Human non-small lung cancer cells (NCI-H1437, ATCC (American Type Culture Collection) CRL-5872) and rat glioma cells (C6, ATCC CCL-107) were grown in DMEM (Life Technologies Inc., Gaithersburg, Md.) containing 10% FBS (Life Technologies Inc.). Human renal cell carcinoma cells (786-0, ATCC CRL-1932) were maintained in RPMI 1640 (Life Technologies Inc.) containing 10% FBS. HUVECs, human epidermal keratinocytes and human renal tubule epithelial cells were obtained from Clonetics (San Diego, Calif.) and grown in EGM-2-MV, KGM and REGM, respectively (Clonetics). All cells were maintained at 37° C. under 5% CO2 in humidified air. Endothelial cells were grown to 90% confluence, serum-starved overnight in EBM-2 medium containing 0.5% FBS and incubated in the absence or presence of tumor cell-conditioned medium or growth factors at the doses and for the times indicated. Unless otherwise stated, endothelial cells were incubated with 20 ng/ml VEGF for 6 hours. In inhibition studies, serum-starved endothelial cells were preincubated with 5 μM BIM, 20 μM LY294002, 50 μM PD98059, or 20 μM SU1498 for 30 minutes before a 6 hour treatment with tumor conditional medium or VEGF. For neutralization studies, tumor conditional medium or growth factors were preincubated with antibodies for 1 hour at 37° C. and the mixture was then added to serum-starved HUVECs. […]

SMILES: O=c1cc(N2CCOCC2)oc2c(-c3ccccc3)cccc12 [LY294002]
- Inhibition of endocan induction by tumor cell-conditioned medium: not
